PubChem BioAssay AID493014 (National Center for Advancing Translational Sciences (NCATS), 2011)
The list shows a part of the results. Further columns of the screen follow, without active or inactive calls. Compounds called inactive in the main read-out are mostly missing here. The note in brackets gives the kind of curve behind each potency; many fits are weak.

Assay: qHTS Assay to Find Inhibitors of Chronic Active B-Cell Receptor Signaling
Settings: ABC-DLBCL IkBa-CBG/CBR reporter, luminescence ratio (green luciferase fused to IkBa over red control in TMD8 lymphoma cells), 4 h
Method in brief: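 TMD8 human ABC-DLBCL cells with doxycycline-inducible IκBα–green luciferase fusion and unfused red luciferase, in 0.5% FBS medium; compounds up to 46 uM, 4 h at 37C. Green/red luminescence ratio, filter-overlap corrected, fitted to concentration-response curves.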

[1] = measured here: CBR red luminescence, cell number
[2] = measured here: IkBa-CBG green luminescence

Compound	AC50 [1]	AC50 [2]
O=C(COc1ccccc1-c1ccccc1)N/N=C/c1ccc2ccccc2c1	2.06 µM [rising, full curve]	1.16 µM [falling, full curve]
Cc1ccccc1-c1nc(C(=O)NCC2CCCO2)cc2c1[nH]c1ccccc12 (configuration not stated)	7.08 µM [falling, full curve]	–
COc1ccc(S(=O)(=O)Nc2cccc(SC)c2)cc1C(=O)N1CCOCC1	35.5 µM [falling, single point]	–
COc1cccc2c(=O)c(C(=O)O)c[nH]c12	4.61 µM [falling, full curve]	–
COc1ccc(C(O)c2nccc3cc(OC)c(OC)cc23)cc1OC (configuration not stated)	10 µM [rising, partial curve, poor fit]	–
O=C(COc1ccccc1C(=O)NCC1CCCO1)Nc1ccc(Br)cc1 (configuration not stated)	15.8 µM [falling, partial curve, poor fit]	–
CC(C)(C)c1cc(C(=O)NCc2cc(F)cc3c2OCOC3)n(Cc2ccccc2)n1	25.1 µM [rising, single point]	–
CCCCc1c(C)nc2nc(SCc3ccc(Cl)cc3)[nH]n2c1=O	1.78 µM [falling, full curve]	–
COc1ccc(CNC(=O)N2CCc3ccccc3C2)cc1Cl	15.8 µM [falling, single point]	–
CC[C@@H](C)[C@@H]1CN([C@@H](CN2CCC[C@H]2CN2C(N)=NC[C@H]2C(C)C)C(C)C)C(=N)N1CCCC1CCCC1	29.1 µM [rising, partial curve, poor fit]	–
CCCOC(=O)CSc1nnc(-c2ccccc2)o1	25.1 µM [rising, single point]	–
CCOC(=O)C(=Cc1ccccc1OC)C(=O)OCC	7.08 µM [falling, full curve]	10 µM [rising, partial curve, poor fit]
O=C(N/N=C1\CCCCc2ccccc21)c1ccccn1	35.5 µM [falling, partial curve, poor fit]	–
CSc1cccc(NC(=O)C2CCCN(S(=O)(=O)c3cccs3)C2)c1 (configuration not stated)	8.91 µM [falling, partial curve]	–
COc1cc(/C=N/NC(=O)CCn2c3ccccc3c3ccccc32)ccc1O	18.4 µM [falling, partial curve, poor fit]	–
O=C(CNc1ccc(Br)cc1)Nc1ccc(S(=O)(=O)N2CCCC2)cc1	6.51 µM [rising, single point]	–
COC(=O)C1=C(C)N(CCc2ccccc2)C(=O)/C1=C\c1ccco1	32.6 µM [falling, partial curve, poor fit]	–
COc1ccc(/C(C)=N/Nc2nc3ccccc3nc2C)cc1OC	–	15.8 µM [falling, partial curve]
Oc1ccc(/C=N/N(Cc2ccccc2)c2ccccc2)cc1	22.4 µM [falling, single point]	–
Nc1c(N=Nc2cccc(Cl)c2)c(=O)[nH]n1-c1ccccc1	1.58 µM [falling, partial curve]	–
Nc1cc(N)cc(-c2nc3ccccc3[nH]2)c1	2.31 µM [rising, partial curve, poor fit]	–

In the list so far, 3 have a Cl atom:
Compound	AC50 [1]	AC50 [2]
CCCCc1c(C)nc2nc(SCc3ccc(Cl)cc3)[nH]n2c1=O	1.78 µM [falling, full curve]	–
COc1ccc(CNC(=O)N2CCc3ccccc3C2)cc1Cl	15.8 µM [falling, single point]	–
Nc1c(N=Nc2cccc(Cl)c2)c(=O)[nH]n1-c1ccccc1	1.58 µM [falling, partial curve]	–

Next compounds follow:

Compound	AC50 [1]	AC50 [2]
O=C(Nc1ccc(Br)cc1)Nc1ccccc1Cl	3.55 µM [falling, partial curve, poor fit]	–
Cc1cc(NC(=O)C2CCCCC2)ccc1NC(=O)c1ccccc1Cl	29.1 µM [rising, single point]	–
O=C(O)CCCCCn1c(O)c(C=C2N=c3ccccc3=N2)sc1=S	0.461 µM [falling, full curve]	–
O=C(c1cc(-c2ccc(F)cc2)on1)N1CCN(c2ccc(F)cc2)CC1	5.62 µM [falling, full curve]	–
COc1ccc(C2CN=NC23CCCc2ccccc2C3=O)cc1 (configuration not stated)	2.24 µM [rising, partial curve]	–
Cc1cc(C(=O)OCC(=O)N2CC(C)OC(C)C2)c2ccccc2n1 (configuration not stated)	0.103 µM [rising, full curve, poor fit]	–
N#Cc1cccc(S(=O)(=O)NCC(=O)OCC(=O)c2ccc[nH]2)c1	20 µM [rising, partial curve, poor fit]	–
Cc1ccc(/C=C/C(=O)N2CC(=O)Nc3ccccc32)o1	35.5 µM [falling, single point]	–
O=C(CSc1nnc2c(n1)[nH]c1ccccc12)Nc1ccc(S(=O)(=O)Nc2ncccn2)cc1	35.5 µM [falling, single point]	–
COCCCNC(=S)N(CCO)Cc1cc2cc3c(cc2[nH]c1=O)OCCO3	17.8 µM [rising, single point]	–
Cc1nnc(SCC(=O)N2CCCCC2)n1CC1CCCO1 (configuration not stated)	23.1 µM [rising, single point]	–
CCOC(=O)c1c(N)n(-c2ccc(OCC)cc2)c2nc3ccccc3nc12	2.51 µM [rising, single point]	–
O=c1[nH]cnc2c1N=C(c1cccc([N+](=O)[O-])c1)CC(c1ccccc1)N2 (configuration not stated)	11.2 µM [rising, partial curve]	–
CNC[C@@H]1Oc2ccc(NS(=O)(=O)c3ccc(OC)cc3)cc2CC(=O)N([C@H](C)CO)C[C@@H]1C	0.184 µM [rising, full curve, poor fit]	–
CN1CCN(CCCNC(=O)c2ccc(/C=C3\Sc4ccccc4N(Cc4ccccc4F)C3=O)cc2)CC1	35.5 µM [falling, single point]	–
CCCC(C)c1nnc(NC(=O)CCS(=O)(=O)c2ccccc2)s1 (configuration not stated)	7.94 µM [falling, partial curve]	–
N#CCSc1nc2c(c(C3CC=CCC3)c1C#N)CCC2 (configuration not stated)	0.731 µM [rising, full curve, poor fit]	–
O=C(c1n[nH]c2c1CCCC2)n1ccnc1	32.6 µM [falling, single point]	–
Cc1cccc2nc(CSc3nc4ccc([N+](=O)[O-])cc4[nH]3)c(Br)n12	2.06 µM [rising, partial curve]	–
COc1cc(C2Nc3cc(Cl)c(S(N)(=O)=O)cc3S(=O)(=O)N2)ccc1OCc1ccccc1 (configuration not stated)	14.6 µM [falling, single point]	–
COc1ccccc1-c1nnc(NC(=O)c2cccc(N3C(=O)CCC3=O)c2)o1	7.31 µM [falling, partial curve]	–

Compound	AC50 [1]	AC50 [2]
O=C(Cn1ncc2ccccc21)N1CCc2ccccc21	5.8 µM [rising, partial curve, poor fit]	–
COc1ccc(C(=O)Nn2c(SCC(=O)NCc3ccccc3)nc3ccccc3c2=O)cc1	2.31 µM [falling, full curve]	–
COC(=O)c1ccccc1NC(=O)Cn1cnc2cc(C)c(C)cc21	35.5 µM [falling, single point]	–
CCOC(=O)c1nn(-c2ccccc2)cc1O	0.631 µM [falling, full curve, poor fit]	–
Cc1cccc(C(=O)n2c(=S)nc3cc(C)ccn32)c1	1.78 µM [falling, full curve, poor fit]	–
CCS(=O)(=O)N1CCc2nc(-c3ccccc3)sc2C1	15.8 µM [falling, single point]	–
COc1ccc(-c2nc3cnccn3c2NC2CCCCC2)cc1-c1cccc(Cl)c1	1.64 µM [rising, partial curve]	–
CSc1nnc2c(n1)OC(c1ccsc1)N(C(C)=O)c1ccccc1-2 (configuration not stated)	29.1 µM [falling, single point]	–
COc1ccc(NC(=O)C2CCC(N3C(=O)C4C5C=CC(C5)C4C3=O)CC2)cc1 (configuration not stated)	1.3 µM [rising, full curve, poor fit]	–
Cc1cc(C)cc(NC(=O)CCC(=O)Nc2nnc(C(F)(F)F)s2)c1	3.98 µM [rising, full curve, poor fit]	–
CCN(CC)C(=O)CSc1nc2c(sc(=S)n2Cc2ccco2)c(=O)n1-c1ccccc1	12.6 µM [falling, single point]	–
Cc1cc(C(=O)N/N=C/C(Cl)=C/c2ccccc2)c(C)o1	12.6 µM [falling, partial curve]	–
CCOc1cccc2sc(N3CCN(C(=O)c4ccco4)CC3)nc12	2 µM [rising, full curve, poor fit]	–
CC(=O)OCCN(C)c1cc(SC(C)C)c2nonc2c1[N+](=O)[O-]	12.6 µM [falling, partial curve, poor fit]	–
Cc1ccc2nc(-c3ccc4c(c3)OCCO4)cn2c1	35.5 µM [falling, single point]	–
COc1ccc(-c2coc3cc(O)cc(O)c3c2=O)cc1	6.51 µM [rising, partial curve]	–
CC(=O)N(C)c1ccc(N=Cc2c(O)ccc3ccccc23)cc1	35.5 µM [falling, single point]	–
C=CCN(c1ccccc1OC)S(=O)(=O)c1cccc(C(=O)NC2=NCCS2)c1	2.91 µM [falling, partial curve]	–
O=C(COc1ccccc1-c1ccccc1)NN=C1CCCC1	1.58 µM [rising, full curve, poor fit]	2.51 µM [falling, full curve]
COc1ccc(C(=O)c2oc3ccc(Br)cc3c2NC(C)=O)cc1	0.517 µM [rising, full curve, poor fit]	–
CCC(Sc1nc2ccsc2c(=O)n1-c1ccc(Cl)c(C)c1)C(=O)NCc1ccco1 (configuration not stated)	18.4 µM [falling, single point]	20.6 µM [rising, partial curve, poor fit]
